Measured values reported in US12180523B2, “Southern green stink bug pheromone synthesis enzymes and uses thereof” (VIRGINIA TECH INTELLECTUAL PROPERTIES, INC., priority 2018, dated 2024).
At least one structure is not confirmed: it was looked up by name or label, or the drawing left a doubt.

Biological target: T1, NvTPS (Nezara viridula, UniProt A0A386JV86)
T1 construct: Full-length NvTPS (NvIDS1) cDNA was cloned into the pEXP5-NT/TOPO (Invitrogen) expression vector; His tag (N-terminal histidine fusion tag from pEXP5-NT/TOPO) (N); made in house; host or cells: E. coli BL21(DE3)pLysS
T1 sequence (A0A386JV86 1-378): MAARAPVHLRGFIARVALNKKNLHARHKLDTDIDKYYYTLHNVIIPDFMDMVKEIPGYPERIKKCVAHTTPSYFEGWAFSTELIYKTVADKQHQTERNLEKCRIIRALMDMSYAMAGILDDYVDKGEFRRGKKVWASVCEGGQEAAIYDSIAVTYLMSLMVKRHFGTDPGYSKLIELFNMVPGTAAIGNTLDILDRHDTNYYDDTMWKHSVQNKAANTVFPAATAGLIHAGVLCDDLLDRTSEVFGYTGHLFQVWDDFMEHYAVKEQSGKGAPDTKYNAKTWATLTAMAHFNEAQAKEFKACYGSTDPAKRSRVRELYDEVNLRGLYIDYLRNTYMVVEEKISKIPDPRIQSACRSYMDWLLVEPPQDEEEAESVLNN
Assay: Kinetic analysis of NvTPS with [1-3H]-(E,E)-FPP
Type: biochemical, N. viridula
Conditions: (E,E)-FPP as the substrate
Procedure: To determine the apparent Km value of NvTPS for (E,E)-FPP, […] of recombinant protein was incubated with increasing concentrations of [1-3H]-(E,E)-FPP (64 ρCi mmol-1) in a total volume of […]. Assays were incubated at 30° C. for 5 min prior to extraction of the enzyme product with 250 μl hexane. Assays were performed in triplicate. Quantification of the radioactive product was as described by Tholl et al. (2005. Plant. J. 42:757-771). The Km value was calculated by rectangular hyperbolic regression analysis using Hyperbolic Regression Analysis software (HYPER 1.01) (J. S. Easterby, University of Liverpool).

CC(C)=CCC/C(C)=C/CC/C(C)=C/COP(=O)(O)OP(=O)(O)O [(E,E)-FPP, (E,E)-farnesyl diphosphate]
kcat value: 5.41×10∧−4±9.76×10∧−5 s−1
kcat/Km: 0.57±4.46×10∧−9 s−1 mM−1
